# Measurements from PubChem BioAssay (EPA / NIEHS).
# Amino acid sequences for entries named in this document (tags omitted). A change or cut given only in a name is not applied to a line headed by its entry.
# UniProt P08684, whole entry, looked up: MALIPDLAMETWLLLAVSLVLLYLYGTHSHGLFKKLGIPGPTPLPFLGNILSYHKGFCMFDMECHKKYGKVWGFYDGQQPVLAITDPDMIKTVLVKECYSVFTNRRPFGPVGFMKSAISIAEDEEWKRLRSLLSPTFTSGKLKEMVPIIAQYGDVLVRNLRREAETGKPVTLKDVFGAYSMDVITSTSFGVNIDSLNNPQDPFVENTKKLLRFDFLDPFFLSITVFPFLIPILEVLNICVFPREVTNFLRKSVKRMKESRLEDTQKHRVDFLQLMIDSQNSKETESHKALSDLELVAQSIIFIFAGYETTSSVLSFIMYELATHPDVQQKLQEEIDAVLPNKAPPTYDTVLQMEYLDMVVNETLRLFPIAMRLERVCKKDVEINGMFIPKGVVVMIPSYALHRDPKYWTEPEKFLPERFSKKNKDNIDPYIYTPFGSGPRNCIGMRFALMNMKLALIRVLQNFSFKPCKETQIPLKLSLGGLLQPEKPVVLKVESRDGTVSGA
# UniProt P10275: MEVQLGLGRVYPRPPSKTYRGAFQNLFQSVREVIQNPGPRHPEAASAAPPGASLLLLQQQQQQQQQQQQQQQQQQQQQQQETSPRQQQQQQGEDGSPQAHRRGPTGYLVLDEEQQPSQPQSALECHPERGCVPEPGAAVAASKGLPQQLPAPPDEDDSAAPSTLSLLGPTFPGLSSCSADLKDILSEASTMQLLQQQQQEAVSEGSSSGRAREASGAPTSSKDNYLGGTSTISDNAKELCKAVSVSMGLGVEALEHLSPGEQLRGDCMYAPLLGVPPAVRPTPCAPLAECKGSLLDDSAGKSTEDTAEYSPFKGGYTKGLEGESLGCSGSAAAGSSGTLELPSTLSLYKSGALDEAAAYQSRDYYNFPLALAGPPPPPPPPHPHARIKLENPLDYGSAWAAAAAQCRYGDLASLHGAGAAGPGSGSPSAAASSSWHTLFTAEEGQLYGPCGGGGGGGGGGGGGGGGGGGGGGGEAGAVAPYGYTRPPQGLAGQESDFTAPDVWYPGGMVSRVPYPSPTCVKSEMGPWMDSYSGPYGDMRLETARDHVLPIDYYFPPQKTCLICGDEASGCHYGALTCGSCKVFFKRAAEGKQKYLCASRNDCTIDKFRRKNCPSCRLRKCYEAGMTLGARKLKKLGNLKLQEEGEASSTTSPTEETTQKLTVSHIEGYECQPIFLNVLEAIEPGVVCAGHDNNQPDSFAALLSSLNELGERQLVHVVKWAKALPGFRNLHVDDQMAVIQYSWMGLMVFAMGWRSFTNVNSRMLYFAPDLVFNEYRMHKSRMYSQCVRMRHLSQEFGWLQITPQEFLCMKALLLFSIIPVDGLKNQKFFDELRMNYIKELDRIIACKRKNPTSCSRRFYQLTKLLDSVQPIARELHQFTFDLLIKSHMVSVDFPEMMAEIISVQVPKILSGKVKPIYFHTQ
# UniProt Q14994: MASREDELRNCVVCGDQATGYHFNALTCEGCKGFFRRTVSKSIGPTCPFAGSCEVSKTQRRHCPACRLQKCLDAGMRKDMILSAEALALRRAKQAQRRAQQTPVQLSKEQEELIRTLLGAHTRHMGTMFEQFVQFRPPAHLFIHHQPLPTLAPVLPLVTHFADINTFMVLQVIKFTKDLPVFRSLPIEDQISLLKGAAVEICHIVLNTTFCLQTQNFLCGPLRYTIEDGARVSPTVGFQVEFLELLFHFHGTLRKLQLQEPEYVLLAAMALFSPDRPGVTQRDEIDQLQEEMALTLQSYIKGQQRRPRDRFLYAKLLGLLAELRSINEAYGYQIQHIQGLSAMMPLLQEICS
# UniProt P42336, whole entry, looked up: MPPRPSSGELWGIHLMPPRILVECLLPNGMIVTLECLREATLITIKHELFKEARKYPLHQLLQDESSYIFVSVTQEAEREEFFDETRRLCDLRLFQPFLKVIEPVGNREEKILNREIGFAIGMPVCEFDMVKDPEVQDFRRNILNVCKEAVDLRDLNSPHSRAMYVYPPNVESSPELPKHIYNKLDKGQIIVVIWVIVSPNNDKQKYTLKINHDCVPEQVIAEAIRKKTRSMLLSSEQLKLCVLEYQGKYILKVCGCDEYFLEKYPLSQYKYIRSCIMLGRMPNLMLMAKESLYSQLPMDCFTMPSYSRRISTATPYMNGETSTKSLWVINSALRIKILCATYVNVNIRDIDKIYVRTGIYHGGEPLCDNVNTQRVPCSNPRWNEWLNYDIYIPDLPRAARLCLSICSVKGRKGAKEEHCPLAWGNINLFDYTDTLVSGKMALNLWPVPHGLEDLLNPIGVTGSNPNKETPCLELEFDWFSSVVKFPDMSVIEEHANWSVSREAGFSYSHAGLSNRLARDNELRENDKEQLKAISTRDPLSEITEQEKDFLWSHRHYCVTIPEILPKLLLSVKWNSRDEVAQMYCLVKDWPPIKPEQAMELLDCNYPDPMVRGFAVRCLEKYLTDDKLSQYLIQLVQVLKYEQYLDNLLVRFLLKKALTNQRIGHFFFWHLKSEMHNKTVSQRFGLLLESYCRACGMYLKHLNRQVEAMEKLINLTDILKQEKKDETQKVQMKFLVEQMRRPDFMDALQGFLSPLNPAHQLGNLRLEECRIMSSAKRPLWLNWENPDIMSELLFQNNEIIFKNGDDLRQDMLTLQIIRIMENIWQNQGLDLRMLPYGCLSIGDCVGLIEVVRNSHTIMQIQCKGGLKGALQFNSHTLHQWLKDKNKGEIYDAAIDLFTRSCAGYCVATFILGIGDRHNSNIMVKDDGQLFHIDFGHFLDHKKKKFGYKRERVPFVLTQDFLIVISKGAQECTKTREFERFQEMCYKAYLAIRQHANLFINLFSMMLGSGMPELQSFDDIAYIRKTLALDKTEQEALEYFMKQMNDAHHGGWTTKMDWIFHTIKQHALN
# UniProt P31749: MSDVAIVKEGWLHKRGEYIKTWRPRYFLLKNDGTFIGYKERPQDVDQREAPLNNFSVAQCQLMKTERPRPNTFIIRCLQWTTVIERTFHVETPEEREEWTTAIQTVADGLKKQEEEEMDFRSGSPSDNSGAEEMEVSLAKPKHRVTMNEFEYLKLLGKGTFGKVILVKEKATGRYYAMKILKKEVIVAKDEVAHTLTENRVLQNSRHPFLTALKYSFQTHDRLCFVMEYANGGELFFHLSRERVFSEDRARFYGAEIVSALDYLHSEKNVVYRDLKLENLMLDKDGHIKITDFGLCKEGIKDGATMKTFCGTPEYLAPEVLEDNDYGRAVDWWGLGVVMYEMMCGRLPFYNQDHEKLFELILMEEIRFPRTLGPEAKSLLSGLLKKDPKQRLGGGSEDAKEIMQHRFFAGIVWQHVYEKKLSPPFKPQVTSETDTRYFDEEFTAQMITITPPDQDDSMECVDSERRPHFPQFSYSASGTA
# UniProt P03372, whole entry, looked up: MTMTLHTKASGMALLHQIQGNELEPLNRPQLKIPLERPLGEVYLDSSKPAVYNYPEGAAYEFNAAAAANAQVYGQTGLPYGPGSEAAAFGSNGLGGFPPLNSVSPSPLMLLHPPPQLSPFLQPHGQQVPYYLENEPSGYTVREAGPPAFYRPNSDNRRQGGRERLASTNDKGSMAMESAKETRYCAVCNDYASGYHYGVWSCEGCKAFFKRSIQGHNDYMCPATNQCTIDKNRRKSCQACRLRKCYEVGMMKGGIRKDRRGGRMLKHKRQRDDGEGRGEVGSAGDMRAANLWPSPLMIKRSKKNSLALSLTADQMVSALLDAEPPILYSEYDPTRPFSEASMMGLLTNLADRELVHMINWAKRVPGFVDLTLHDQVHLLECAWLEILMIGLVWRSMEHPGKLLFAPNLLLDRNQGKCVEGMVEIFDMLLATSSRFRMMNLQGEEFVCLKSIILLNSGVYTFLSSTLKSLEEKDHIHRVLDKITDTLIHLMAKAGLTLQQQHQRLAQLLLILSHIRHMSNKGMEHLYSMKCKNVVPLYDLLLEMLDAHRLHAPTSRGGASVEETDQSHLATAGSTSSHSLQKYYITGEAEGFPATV
# UniProt P16257, whole entry, looked up: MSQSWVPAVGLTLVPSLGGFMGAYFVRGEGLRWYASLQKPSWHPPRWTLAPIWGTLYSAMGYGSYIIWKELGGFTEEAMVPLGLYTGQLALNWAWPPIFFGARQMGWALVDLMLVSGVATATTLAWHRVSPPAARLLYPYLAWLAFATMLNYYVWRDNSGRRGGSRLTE
# Several values for one entry are separate records, joined by “and”; a condition that tells them apart may be missing. Identical values can stand only once. Inconclusive results, whose numbers are uncertain, are shown with a selection of clear calls. For part of these data: Where the call is inconclusive, the potency comes from a doubtful curve fit. Activity calls are given as the source filed them. Rule for the calls: active = hit-call score of the fitted dose curve at least 0.9, where 1 is the maximum; inconclusive = response in the unintended direction; inactive = score below 0.9.
# Experiments:
# [1] = target: Cytochrome P450 3A4 (Homo sapiens) (UniProt P08684); assay: NVS_ADME_hCYP3A4: NovaScreen (NVS) CYP450-related Enzyme Activity (ADME) Assay for human CYP3A4 (AID 2283110)
# Method in brief: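 Activity is derived from decreased fluorescence intensity relative to acetonitrile, measured 0.33 hour after dosing insect-cell-expressed CYP3A4 in a cell-free format. Screening used 10 uM in duplicate before concentration-response follow-up.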
# [2] = Tanguay_ZF_120hpf_CFIN_legacy: (Legacy) Oregon State University Tanguay Lab 120 Hour Post-fertilization zebrafish Assay for Caudal Fin Malformation (AID 2283649)
# Method in brief: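 Binary brightfield scoring of caudal fin defects at 120 hpf after static, light-shielded exposure at 28C from 6 hpf. Tropical 5D embryos, chorion removed with pronase at 4 hpf, final DMSO 0.64%.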
# AR (gene 367) = AR (gene 367) (UniProt P10275); assay: ACEA_AR_antagonist_80hr: ACEA Biosciences xCELLigence Real-Time Cell Analysis on Androgen Receptor Antagonism for Proliferation (AID 2283787);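 note: 22Rv1 human prostate cancer cells with growth followed by electrical impedance; hits lower the impedance growth signal relative to DMSO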
# Method in brief: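 Using 22Rv1 cells held in assay medium, we dosed compounds (100 uM maximum final, 1:4 serial, eight points, 0.5% DMSO at top) and recorded cell-electrode impedance; the 80 hr timepoint was analyzed against DMSO.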
# [3] = read-out: glucuronosyltransferase (UGT1A1), UGT1A1 (gene 54658); assay: CLD_UGT1A1_6hr: CellzDirect (CLD) Gene Expression Assay for glucuronosyltransferase (UGT1A1) at 6 hours (AID 2283672)
# Method in brief: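 UGT1A1 mRNA induction, read by quantitative nuclease protection assay, 6 h after dosing primary human hepatocytes (two donors, 0.2% DMSO vehicle). Gain of signal fitted relative to vehicle.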
# [4] = read-out: xenobiotic metabolism (CYP1A2), CYP1A2 (gene 1544); assay: CLD_CYP1A2_24hr: CellzDirect (CLD) Gene Expression Assay for xenobiotic metabolism (CYP1A2) at 24 hours (AID 2283683)
# Method in brief: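 CYP1A2 mRNA induction measured by quantitative nuclease protection (chemiluminescent) in human primary hepatocytes 24 h after multi-concentration chemical dosing with daily fresh solutions. DMSO (0.2%) baseline; positive-direction fitting; morphology-based cytotoxicity noted.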
# [5] = target: Ratio of Nucleoli Translocation and Cytoplasm, AR (gene 367) (UniProt P10275); assay: UPITT_HCI_U2OS_AR_TIF2_Nucleoli_Cytoplasm_Ratio_Agonist: University of Pittsburgh U2OS Androgen Receptor-Transcriptional Intermediary Factor 2 (AR-TIF2) Agonism High Content Imaging Assay for Ratio of Nucleoli Translocation and Cytoplasm (AID 2284000);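 note: hits raise the red nucleolar to cytoplasm ratio above vehicle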
# Method in brief: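 Primary screen at 20 uM final (0.2% DMSO), then triplicate confirmation and dose-response from 0.195 to 50 uM final (0.5% DMSO). Cells: U2OS with AR-RFP and TIF2-GFP. Endpoint is the nucleoli/cytoplasm red-fluorescence ratio, gain-of-signal vs DMSO.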
# [6] = target: human Constitutive Androstane Receptor (CAR), NR1I3 (gene 9970) (UniProt Q14994); assay: NVS_NR_hCAR_Antagonist: NovaScreen (NVS) Nuclear Receptor Binding Assay for human Constitutive Androstane Receptor Antagonism (CAR) (AID 2283344)
# Method in brief: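 Single 25 uM duplicate primary screen, with concentration-series follow-up on actives. Cell-free binding format run in antagonist mode, TR-FRET signal taken 1 h post-dose; activity is signal loss relative to DMSO.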
# [7] = CCTE_Shafer_MEA_dev_LDH: CCTE's Lactate Dehydrogenase Assay for Cytotoxicity in the Neural Network Formation Assay, Shafer Lab (AID 2284068);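 note: exposure for twelve days from plating with re-dosing on DIV 5 and 9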
# Method in brief: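 Rat cortical primary neurons, MEA culture; dosing day 0–12, full medium plus compound exchange DIV 5, 9. Read-out: LDH enzyme activity, spectrophotometric. DMSO = negative control/baseline; signal loss → cytotoxicity.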
# [8] = CCTE_Mundy_HCI_hNP1_Pro_ResponderAvgInten: CCTE's Proliferation Assay in human neuroprogenitor cells, Mundy Lab (AID 2284224);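 note: human neural progenitor cells hNP1 derived from WA09 embryonic stem cells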
# Method in brief: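 Human neuroprogenitors (hNP1, WA09 lineage) receive test chemical after 40 to 44 hours of attachment. A four-hour BrdU pulse begins twenty hours later, followed by fixation and high content imaging; signal is referenced to DMSO controls.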
# [9] = target: human Phosphoinositide 3-kinase alpha (PI3Ka), PIK3CA (gene 5290) (UniProt P42336); assay: NVS_ENZ_hPI3Ka: NovaScreen (NVS) Enzymatic Assay for human Phosphoinositide 3-kinase alpha (PI3Ka) (AID 2283196)
# Method in brief: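 Fluorescence/mobility-shift readout of substrate conversion by recombinant enzyme, 1 h post-dosing. Primary screen in duplicate at 25 uM; actives (e.g. ≥30% inhibition) retested in singleton concentration-response, top concentration 50 uM.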
# [10] = Tanguay_ZF_120hpf_TRUN_legacy: (Legacy) Oregon State University Tanguay Lab 120 Hour Post-fertilization zebrafish Assay for Truncated Body (AID 2283655)
# Method in brief: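 Binary presence/absence of truncated body is recorded at 120 hpf by brightfield, with non-mortality endpoints skipped after death. Exposure is static from 6 hpf in sealed dark plates at 28C, using dechorionated wild-type zebrafish, 0.64% DMSO.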
# [11] = Tanguay_ZF_120hpf_PIG_legacy: (Legacy) Oregon State University Tanguay Lab 120 Hour Post-fertilization zebrafish Assay for Pigmentation Malformation (AID 2283650)
# Method in brief: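 Endpoint is incidence of abnormal pigmentation at 120 hpf in dechorionated 5D zebrafish exposed singly from 6 hpf at 28C, DMSO vehicle at 0.64%. Embryos dying by 24 or 120 hpf are excluded from scoring.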
# [12] = Tanguay_ZF_120hpf_JAW_legacy: (Legacy) Oregon State University Tanguay Lab 120 Hour Post-fertilization zebrafish Assay for Jaw Malformation (AID 2283638);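 note: active means more embryos with jaw malformation than DMSO controls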
# Method in brief: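 Binary jaw-malformation call at 120 hpf by brightfield microscopy. Embryos (Tropical 5D strain, chorion removed at 4 hpf) were dosed statically at 6 hpf, one per well, at 28C with 0.64% DMSO. Embryos that died were not scored.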
# [13] = CCTE_Shafer_MEA_dev_AB: CCTE's Alamar Blue Assay for Cytotoxicity in the Neural Network Formation Assay, Shafer Lab (AID 2284083);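 note: resazurin reduction fluorescence as viability of cultured neurons; twelve days of exposure from plating with re-dosing on DIV 5 and 9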
# Method in brief: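 Rat cortical primary cultures, 1.5 x 10^5 cells/well on MEA; continuous compound exposure over 12 days of network development, re-dosed with full medium change DIV 5 and 9. Alamar Blue fluorescence; loss of signal = cytotoxicity vs DMSO baseline.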
# [14] = target: human AKT serine/threonine Kinase 1 (AKT1), AKT1 (gene 207) (UniProt P31749); assay: NVS_ENZ_hAKT1: NovaScreen (NVS) Enzymatic Assay for human AKT serine/threonine Kinase 1 (AKT1) (AID 2283138)
# Method in brief: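 Fluorescence and mobility-shift readout of kinase activity, taken 1 h post-dosing in a cell-free format with recombinant protein. Primary screen at 25 uM in duplicate; hits (e.g. 30% inhibition) retested in concentration series topping at 50 uM.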
# [15] = target: Estrogen receptor (Homo sapiens) (UniProt P03372); assay: CCTE_Deisenroth_AIME_384WELL_LUC_Active: CCTE's 384-well Estrogen Receptor Transactivation Assay with AIME metabolic competence (ERTA luciferase; metabolism positive), Deisenroth Lab (AID 2284030)
# Method in brief: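 VM7Luc4E2 breast cells were given, for 24 hours, medium pre-incubated for 2 hours with parent chemical (0.002-200 uM, 10 concentrations) and alginate-encapsulated phenobarbital/beta-naphthoflavone-induced rat hepatic S9. Luciferase gain of signal was fitted against 17beta-estradiol; n=4 or more.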
# [16] = Tanguay_ZF_120hpf_EYE_legacy: (Legacy) Oregon State University Tanguay Lab 120 Hour Post-fertilization zebrafish Assay for Eye Malformation (AID 2283636);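 note: binary presence or absence of eye malformation scored by brightfield in 120 hpf larvae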
# Method in brief: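 Static waterborne exposure of dechorionated zebrafish embryos (strain Tropical 5D), 6 to 120 hpf, sealed plates at 28C, 0.64% DMSO vehicle. Eye malformation is scored as a binary endpoint, with gain of signal analysed relative to DMSO.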
# [17] = read-out: ABC Transporter (ABCB1), ABCB1 (gene 5243); assay: CLD_ABCB1_24hr: CellzDirect (CLD) Gene Expression Assay for ABC Transporter (ABCB1) at 24 hours (AID 2283684);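 note: potency for increase in ABCB1 mRNA relative to DMSO vehicle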
# Method in brief: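 ABCB1 mRNA induction versus 0.2% DMSO vehicle was read by qNPA chemiluminescence at 24 h. Cultured human hepatocytes from two donor preparations received daily fresh dosing, and phase-contrast cytotoxicity calls were annotated alongside the data.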
# [18] = target: rat Peripheral-type Benzodiazepine Receptor (PBR), Tspo (gene 24230) (UniProt P16257); assay: NVS_MP_rPBR: NovaScreen (NVS) Membrane Protein Assay for rat Peripheral-type Benzodiazepine Receptor (PBR) (AID 2283335)
# Method in brief: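 Single-concentration duplicate screening at 25 uM preceded concentration-series retesting of actives. Binding of a specific radioligand to rat kidney membrane PBR was read by filtration radiodetection after 1 h, with plate-wise positive and negative controls.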
smiles,measurement,setting,value
S=c1[nH]c2ccccc2[nH]1,AC50,[1],inconclusive: 1.78 µM
Cc1nn(-c2cc(NS(C)(=O)=O)c(Cl)cc2Cl)c(=O)n1C(F)F,AC50,[2],inconclusive: 55.3 µM
same,AC50,AR (gene 367),inconclusive: 0.00061 µM
CS/C(C)=N/OC(=O)N(C)SN(C)C(=O)O/N=C(\C)SC,AC50,[3],inconclusive: 20 µM
same,AC50,[4],inconclusive: 20 µM
same,AC50,[5],active: 84.1 µM
O=C(O)COc1cc(Cl)c(Cl)cc1Cl,AC50,AR (gene 367),inconclusive: 0.137 µM
COC(=O)N(OC)c1ccccc1COc1ccn(-c2ccc(Cl)cc2)n1,outcome,[6],inactive
same,AC50,[3],inconclusive: 3.97 µM
same,AC50,[4],active: 0.545 µM
same,AC50,[7],active: 54.7 nM and active: 5.99 nM
same,AC50,[8],active: 81.5 µM
COc1cc(OC)nc(Sc2cccc(Cl)c2C(=O)O)n1,AC50,[4],inconclusive: 0.0119 µM
ClC1=C(Cl)C2(Cl)C3C(Cl)C(Cl)CC3C1(Cl)C2(Cl)Cl (stereo not drawn),outcome,[9],inactive
same,AC50,[10],inconclusive: 1 µM
Clc1cccc(C(Cl)(Cl)Cl)n1,AC50,[11],inconclusive: 51.9 µM
same,outcome,AR (gene 367),inactive
CC(C)(c1cc(Cl)c(O)c(Cl)c1)c1cc(Cl)c(O)c(Cl)c1,AC50,[1],inconclusive: 5 µM
O=C(O)C(F)(F)C(F)(F)C(=O)O,outcome,[7],inactive
c1cc2ccc3cccc4ccc(c1)c2c34,AC50,[9],inconclusive: 26 µM
same,AC50,[12],inconclusive: 3.59 µM
same,AC50,AR (gene 367),active: 25.5 µM
same,outcome,[13],inactive
O=C(O)C(F)(F)C(F)(F)C(F)(F)C(F)(F)C(F)(F)C(F)(F)C(F)(F)C(F)(F)C(F)(F)C(F)(F)F,AC50,[14],active: 1.59 µM
same,outcome,[7],inactive
same,AC50,[13],inconclusive: 10 µM
c1ccc2c(c1)Nc1ccccc1S2,AC50,[15],active: 41.3 µM
CC(COc1ccc(Oc2ccccc2)cc1)Oc1ccccn1 (stereo not drawn),AC50,[16],inconclusive: 202 µM
same,outcome,[4],inactive
same,AC50,[5],inconclusive: 50 µM
CNC(=O)/C=C(\C)OP(=O)(OC)OC,AC50,[2],inconclusive: 7.16 µM
same,AC50,[17],inconclusive: 20 µM
Nc1ccc(Cl)cc1N,AC50,[18],inconclusive: 25 µM
